# Reference: patent publication US4066678A (priority 1975, dated 1978)
# For at least one compound, name, drawing or mass did not settle the structure.
# Assay: Hygroscopic property
# Format: physicochemical
smiles,measurement,value
O=C(O)C[CH2][Ge]([OH])([OH])[OH] [Dimethylammonium 3-trihydroxygermylpropionate],hygroscopic property,extremely hydroscopic
